PubChem BioAssay AID1259276 – Sanger Institute | 2017
Shown is a random part of 794 deposited reagents. In the full data, 24 (3%) are marked active. 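Calls come only from the siRNA-alone arm; drug synergy scores do not affect them.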 Viability is capped at 1. Not all columns of the deposit are shown. Not given: the amount of reagent, the time to read-out.

- Screen: 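Kinase knock-downs that reduce colorectal cancer cell viability alone or with anchor drugs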 (primary screen)
- System: human C2BBe1 colorectal cancer cells
- Knock-down reagent: siRNA pool against human genes
- Conditions: DMSO vehicle, or one anchor drug: BYL719 at 1 µM, cetuximab at 5 µg/ml, or trametinib at 10 nM; exposure length not stated
- Read-out: 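Viability after knock-down relative to non-targeting siRNA controls, averaged across replicates, given as ratio and control-derived robust z-score, with per-drug synergy scores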
- Scale: viability robust z-score, siRNA alone and viability vs control, siRNA alone: higher = more viable cells after knock-down; synergy score with BYL719: higher = stronger combined killing with BYL719
- Call rule: 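Called essential when knock-down alone gives a viability robust z-score below -3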
- Calls: active = essential (siRNA alone); inactive = no change (siRNA alone)

no.	gene	viability robust z-score, siRNA alone	viability vs control, siRNA alone	synergy score with BYL719	call
1	PIP5K1C (phosphatidylinositol-4-phosphate 5-kinase type 1 gamma)	0.472	1	0.122	inactive
2	CDK5R1 (cyclin dependent kinase 5 regulatory subunit 1)	-1.38	0.883	0.0475	inactive
3	NLK (nemo like kinase)	0.472	1	-0.13	inactive
4	STK16 (serine/threonine kinase 16)	0.472	1	-0.142	inactive
5	CLK2 (CDC like kinase 2)	0.472	1	-0.142	inactive
6	DYRK2 (dual specificity tyrosine phosphorylation regulated kinase 2)	-1.25	0.892	0.15	inactive
7	EPHA4 (EPH receptor A4)	0.472	1	-0.0656	inactive
8	DGKB (diacylglycerol kinase beta)	-0.88	0.915	0.224	inactive
9	MYLK (myosin light chain kinase)	-0.437	0.943	-0.13	inactive
10	PKMYT1 (protein kinase, membrane associated tyrosine/threonine 1)	0.472	1	-0.142	inactive
11	NEK10 (NIMA related kinase 10)	0.472	1	0.172	inactive
12	TRIM27 (tripartite motif containing 27)	-0.99	0.908	-0.0618	inactive
13	CDK16 (cyclin dependent kinase 16)	-0.946	0.911	-0.0529	inactive
14	STK3 (serine/threonine kinase 3)	0.472	1	-0.061	inactive
15	LATS1 (large tumor suppressor kinase 1)	0.472	1	0.103	inactive
16	TAF1 (TATA-box binding protein associated factor 1)	-0.205	0.957	-0.102	inactive
17	TAOK1 (TAO kinase 1)	-0.14	0.961	0.0738	inactive
18	TP53RK (TP53 regulating kinase)	0.472	1	-0.123	inactive
19	BRD2 (bromodomain containing 2)	0.472	1	-0.142	inactive
20	NEK7 (NIMA related kinase 7)	-0.163	0.96	0.0735	inactive
